Residue numbers refer to the chain shown, from its start. These are yes or no findings as the source states them, for the method shown. Some binding calls cover weakened binding; strength is not graded here.

For two molecules, binding results are on record in patent publication CN117736324A.

This assay has as its target 食蟹猴Siglec-15-His (cynomolgus monkey). Description: ELISA, cynomolgus Siglec-15-His coated. (An ELISA detects its analyte on a solid surface through an enzyme-linked reagent.)

B1: 抗Siglec-15单克隆抗体HA-I (人源化抗体分子, human IgG1/Ck) (antibody, V domains shown)
VH: QVQLVQSGAEVKKPGASVKVSCKASGYTFTDYNMFWVRQAPGQRLEWIGYIYPDNGGTGYNQNFKSKATLTVDNSASTAYMELSSLRSEDTAVYYCARSEYDYFDYWGQGTLVTVSS
VL: DIVLTQSPSSLSASVGDRVTITCRASQDISNYLNWYQQKPGKAVKLLIYYTSRLHSGVPSRFSGSGSGTDYTFTISSLQPEDIATYFCQQGNTLPLTFGQGTKVELKR
With B1, the binding entry was “binds”.

B2: 人源化抗体分子HA-II (human IgG1/Ck) (antibody, V domains shown)
VH: B1 VH
VL: B1 VL with V3Q, V44P
In the case of B2, the binding entry was “binds”.
